Source: PubChem BioAssay AID1347076 (National Center for Advancing Translational Sciences (NCATS), 2019)
Screen size: about 400,000 compounds; about 13,000 (3.2%) were called active. Inconclusive means that the source gave no clear call. Such entries were picked first, then a sample of the others. The call rests on the fitted dose curve; in most records, active means well fitted cell-killing curve with a large enough effect; inconclusive means small, poorly fitted or top-dose-only effect, or effect the other way; inactive means flat fitted curve, though single readings scatter. Potencies beside an inconclusive call are fits to weak or partial responses and may not hold up.

Experiment: qHTS assay for MDR1-selective chemotherapeutics: Primary screen using the drug-selected MDR subline cells KB-V1; further: nearly all actives have a fitted effect of over 60% in size
Conditions: KB-V1 MDR cells viability, CellTiter-Glo, 72 h; series mostly up to 46.1 µM
Procedure, shortened: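 In this primary screen, KB-V1 cells overexpressing P-gp are incubated with library compounds (lowest to highest concentration) for 72 h at 37 degrees C before a luminescent ATP viability read.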
Potency means the concentration at half of the fitted maximal effect.

SMILES | Potency
COc1cccc(/C=N/Nc2ncc(C(F)(F)F)cc2Cl)c1O | inconclusive: 1.84 µM [cytotoxic, partial curve, poor fit]
Cc1ccc(S(=O)(=O)Nc2ccc3c(c2)CC(=O)N([C@H](C)CO)C[C@H](C)[C@H](CN(C)Cc2ccc4c(c2)OCO4)O3)cc1 | inactive
O=C(CSc1nc2ccccc2nc1SCC(=O)N1CCCCC1)N1CCCCC1 | inactive
CCc1ccc(C(C(=O)NCc2ccc(F)cc2)N(C(=O)c2csnn2)C2CC2)cc1 (centres undefined) | inconclusive: 16.4 µM [cytotoxic, single point]
CNc1ccc(-c2ccccc2OC)cn1 | inactive
COc1ccc(-c2nnn(CC(=O)c3c[nH]c4ccccc34)n2)cc1OC | inconclusive: 20.6 µM [cytotoxic, single point]
CN(CC(=O)Nc1ccc(Cl)cc1)C(=O)CCc1nc2sc3c(c2c(=O)[nH]1)CCCC3 | inactive
COC(=O)c1cc(NC(=O)C2C3C=CC(C3)C2C(=O)O)cc(C(=O)OC)c1 (centres undefined) | inconclusive: 11.6 µM [cytotoxic, partial curve, poor fit]
Cc1c(NC(=O)Nc2cccc(F)c2)c(=O)n(-c2ccccc2)n1C | inactive
CN(C)c1ccc(C(=O)NCc2ccc3c(c2)CCN3C(=O)c2ccccc2)cc1 | inactive
Cc1ccc(Nc2nc(Cl)nc(NC3CCCCC3)n2)cc1 | inconclusive: 29.1 µM [cytotoxic, single point]
CC(=O)Nc1ccc(S(=O)(=O)NC(CSc2ccc(C(=O)O)cc2[N+](=O)[O-])C(=O)O)cc1 (centres undefined) | inconclusive: 0.82 µM [rising, full curve]
Cc1nn(Cc2ccc([N+](=O)[O-])cc2)c(=O)n1-c1ccccc1Cl | inconclusive: 29.1 µM [cytotoxic, partial curve, poor fit]
CCOC(=O)c1[nH]c2ccc(C)cc2c1N | inconclusive: 23.1 µM [cytotoxic, single point]
CCOc1ccccc1C(=O)N[C@H](C(=O)Nc1nc2c(s1)CCCC2)C(C)C | inconclusive: 29.1 µM [cytotoxic, single point]
CC(Sc1nnc(NC2CC2)s1)C(=O)Nc1ccc(S(N)(=O)=O)cc1 (centres undefined) | inactive
Cc1ccc(-c2nc3ccc(C)cn3c2CC2CCCCC2)cc1 | inconclusive: 0.651 µM [cytotoxic, full curve, poor fit]
O=C(Nc1ccc(-c2nc3ccccc3o2)cc1)C1CCCO1 (centres undefined) | active: 10.3 µM
COc1ccccc1NC(=O)c1ccc(-c2ccccc2[N+](=O)[O-])o1 | inconclusive: 10.3 µM [cytotoxic, partial curve]
COc1ccccc1CNC(=O)CS(=O)(=O)Cc1nc(-c2ccccc2C)oc1C | inactive
COC(=O)C1(C(=O)OC)CCCCN(S(=O)(=O)c2ccc(C)cc2)CCC1 | inconclusive: 11.6 µM [cytotoxic, partial curve]
CCOc1ccc(CCNC(=O)CCc2nnc3ccc(N4CCOCC4)nn23)cc1OCC | inconclusive: 2.31 µM [cytotoxic, partial curve, poor fit]
S=c1[nH]nc(Cn2nnc3ccccc32)n1-c1ccc(Cl)cc1 | inactive
Cc1ccc2cc(CN(Cc3ccco3)C(=O)c3cccs3)c(=O)[nH]c2c1 | active: 5.17 µM
CN(C)c1ccc(CNC(=O)c2sc3ncccc3c2-n2cccc2)cc1 | inactive

SMILES | Potency
Cc1cccn2cc(-c3ccc(Cl)cc3)nc12 | inconclusive: 16.4 µM [cytotoxic, partial curve, poor fit]
Nc1[nH]n2c(=O)c3c(nc2c1N=Nc1ccccc1)CCCC3 | active: 13 µM
Cc1ccc(OCC(=O)Nc2ccccc2Sc2ccccc2)c([N+](=O)[O-])n1 | active: 18.4 µM
COC(=O)c1sccc1NC(=O)NC1CCCCC1 | inactive
Cc1cc(C)c2c(=N)c3ccccc3n(CCCCCCCCn3c4ccccc4c(=N)c4c(C)cc(C)nc43)c2n1 | inactive
CCCOC(=O)c1cc(-c2ccc(C=O)o2)ccc1Cl | inconclusive: 16.4 µM [cytotoxic, single point]
O=C1COc2ccc(C(=O)COc3ccc([N+](=O)[O-])cc3)cc2N1 | inconclusive: 29.1 µM [rising, single point]
CCOC(=O)C1(CCOc2ccccc2)CCN(Cc2cccc(-n3cccn3)c2)CC1 | inconclusive: 20.6 µM [cytotoxic, single point]
Cc1cccc(NC(=O)C2CCN(S(=O)(=O)c3ccc4ccccc4c3)CC2)n1 | inconclusive: 29.1 µM [cytotoxic, partial curve, poor fit]
CN(C)CCCNC(=O)/C=C/c1ccc2c(c1)OCO2 | inactive
CSc1ncccc1C(=O)OCC(=O)c1ccccc1 | inactive
CCOc1ccc(NC(=O)CN(C)C(=O)c2ccccc2OCc2cccc(C)c2)cc1OCC | active: 2.91 µM
O=C(Nc1cccc(NC(=O)c2sc3ccccc3c2Cl)c1)c1ccco1 | inconclusive: 29.1 µM [cytotoxic, single point]
COc1ccc(CCNC(=O)CCc2cc(OC)c(OC)c(OC)c2)cc1OC | inactive
COc1ccc(C2C(=O)N(C3CCCCC3)CC(=O)N2C2CCCCC2)cc1 (centres undefined) | inactive
Cc1ccc(S(=O)(=O)CC(=O)Nc2nc(-c3ccccc3)cs2)cc1 | active: 18.4 µM
O=C(CCc1nc(-c2ccccc2Cl)no1)NCC1CCCO1 (centres undefined) | inconclusive: 0.184 µM [cytotoxic, full curve]
CCN1CCc2c(C#N)c(NCc3ccccc3)nc(N(CC)CC)c2C1 | inconclusive: 5.17 µM [cytotoxic, partial curve, poor fit]
CC(=O)Nc1ccc(S(=O)(=O)NCc2cccnc2)cc1 | inconclusive: 18.4 µM [rising, single point]
COCCn1c(C)cc(O)c(C(c2ccc(Cl)cc2)N2CCCCC2)c1=O (centres undefined) | inactive
O=C(CSc1nc2ccccc2s1)N1c2ccccc2Sc2ccccc21 | active: 20.6 µM
COc1ccc(CCNc2ncnc3c2oc2ccccc23)cc1OC | active: 2.59 µM
CCc1c(C)sc(NC(=O)c2cc(-c3ccc(O)cc3)on2)c1C#N | inactive
CC(NC(=O)COC(=O)c1ccccc1Nc1ccccc1)c1ccccc1 (centres undefined) | inconclusive: 20.6 µM [cytotoxic, single point]
N#CC1=C(N)Oc2cc(N)ccc2C1c1cccc(Br)c1 (centres undefined) | inconclusive: 29.1 µM [cytotoxic, single point]

A draw from above in order of molar mass, largest number first.
SMILES | Potency
Cc1cccc(NC(=O)C2CCN(S(=O)(=O)c3ccc4ccccc4c3)CC2)n1 | inconclusive: 29.1 µM [cytotoxic, partial curve, poor fit]
N#CC1=C(N)Oc2cc(N)ccc2C1c1cccc(Br)c1 (centres undefined) | inconclusive: 29.1 µM [cytotoxic, single point]
Nc1[nH]n2c(=O)c3c(nc2c1N=Nc1ccccc1)CCCC3 | active: 13 µM

Next compounds:

SMILES | Potency
O=C(C1CCCN(Cc2ccccc2Cl)C1)N1CCCCC1 (centres undefined) | inactive
Cc1ccc(S(=O)(=O)Nc2ccc(Nc3nccn4c(-c5ccc6ccccc6c5)cnc34)cc2)cc1 | active: 11.6 µM
Cc1cc(NC(=O)CSc2nnnn2-c2cc(Cl)ccc2C)no1 | inconclusive: 18.4 µM [cytotoxic, single point]
O=C(CSc1nnc(-c2ccccn2)n1-c1ccc(Cl)cc1)Nc1ccc2c(c1)OCO2 | inconclusive: 2.06 µM [cytotoxic, full curve]
O=C(NNC(=S)Nc1ccccc1)NNC(=S)Nc1ccccc1 | inactive
CC(C)(C)C1CCc2c(sc(NC(=O)c3ccncc3)c2C(N)=O)C1 (centres undefined) | active: 11.6 µM
O=C(C[C@H]1C(=O)N(Cc2ccccc2)C[C@@H]1c1ccc(Br)cc1)Nc1ccc(Br)cc1 | inconclusive: 18.4 µM [cytotoxic, single point]
C=CCn1c(SC(C)C(=O)NCc2ccc3c(c2)OCO3)nc2scc(-c3ccccc3)c2c1=O (centres undefined) | inconclusive: 20.6 µM [cytotoxic, partial curve, poor fit]
O=C1/C(=C\c2ccccc2)SC(=S)N1CCC(=O)N1CCCCC1CCO (centres undefined) | inconclusive: 29.1 µM [cytotoxic, single point]
Cc1cc(O)c(Sc2ncn[nH]2)cc1NS(=O)(=O)c1ccc(Cl)cc1 | inactive
CCOC(=O)[C@H]1[C@H]2COc3ccc(C)cc3[C@@H]2N2C(=O)CN(Cc3ccccc3)C(=O)[C@@]12C | inactive
COc1ccc(CC(=O)OCC(=O)Nc2ccc3[nH]c(=O)[nH]c3c2)cc1OC | inconclusive: 16.4 µM [rising, partial curve, poor fit]
COc1ccc2cnn(CCOc3cc(C)ccc3C(C)C)c(=O)c2c1OC | active: 6.51 µM
COc1ccc(S(=O)(=O)NNC(=O)c2cccs2)cc1 | inactive
CCOC(=O)Cn1c(=O)oc2cc(S(=O)(=O)N(C)c3ccc(OC)cc3)ccc21 | inactive
Cc1cc(C)nc(Nc2nc(C(N)Cc3ccc(Cl)cc3)cs2)n1 (centres undefined) | inconclusive: 23.1 µM [cytotoxic, single point]
O=C(Cn1ncc(N2CCCC2)c(Br)c1=O)c1ccc(Cl)cc1 | inconclusive: 13 µM [cytotoxic, partial curve]
Nc1nnc(SCCN2C(=O)c3ccccc3S2(=O)=O)s1 | inconclusive: 25.9 µM [rising, single point]
O=C(NCCc1nc2ccccc2[nH]1)C1CCC(=O)N(CCc2cccc(F)c2)C1 (centres undefined) | inactive
CCS(=O)(=O)N1Cc2ccccc2CC1C(=O)Nc1nnc(C2CC2)s1 (centres undefined) | inconclusive: 13 µM [cytotoxic, partial curve]
Cc1cc(C(=O)CN2C(=O)NC(c3ccccc3)(c3ccccc3)C2=O)c(C)n1Cc1ccccc1 | inactive
COc1ccc(CCCNC(=O)C2(C)Cc3c(-c4ccc5c(c4)OCO5)ccnc3O2)cc1 (centres undefined) | inconclusive: 18.4 µM [cytotoxic, single point]
CCC[C@H]1CN(c2ccccc2)C(=O)[C@@H]1CC(=O)Nc1ccc(OC)cc1 | inactive
Cc1cc(NS(=O)(=O)c2ccc(NC(=O)COc3ccccc3C(C)(C)C)cc2)no1 | inconclusive: 29.1 µM [cytotoxic, single point]
